Data reported in the supplement of paper PMC10849652.
This is one part of the list. Residues, ends and D or L forms follow the SMILES beside them. *: point of attachment. Cbz = O=C(OCc1ccccc1)*

Chains of the proteins cited; added tags and fusions are not shown. Lines headed by an entry give the natural chain unless they say otherwise; changes in a name come on top.
UniProt Q86VQ3: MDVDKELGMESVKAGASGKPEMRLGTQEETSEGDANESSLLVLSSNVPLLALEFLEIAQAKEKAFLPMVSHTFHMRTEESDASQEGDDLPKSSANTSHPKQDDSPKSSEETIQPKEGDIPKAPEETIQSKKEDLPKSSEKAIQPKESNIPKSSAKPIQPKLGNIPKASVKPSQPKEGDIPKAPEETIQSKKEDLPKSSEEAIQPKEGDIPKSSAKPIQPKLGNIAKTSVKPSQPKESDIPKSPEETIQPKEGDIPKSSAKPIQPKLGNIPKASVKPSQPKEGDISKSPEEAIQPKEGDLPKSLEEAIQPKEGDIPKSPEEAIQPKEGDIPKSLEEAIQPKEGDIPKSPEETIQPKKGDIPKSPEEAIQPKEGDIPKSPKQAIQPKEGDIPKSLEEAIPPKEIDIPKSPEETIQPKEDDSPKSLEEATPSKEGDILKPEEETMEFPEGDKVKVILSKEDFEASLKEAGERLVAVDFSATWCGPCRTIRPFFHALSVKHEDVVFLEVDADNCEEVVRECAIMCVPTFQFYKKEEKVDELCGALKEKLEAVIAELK
UniProt Q8N0Z6: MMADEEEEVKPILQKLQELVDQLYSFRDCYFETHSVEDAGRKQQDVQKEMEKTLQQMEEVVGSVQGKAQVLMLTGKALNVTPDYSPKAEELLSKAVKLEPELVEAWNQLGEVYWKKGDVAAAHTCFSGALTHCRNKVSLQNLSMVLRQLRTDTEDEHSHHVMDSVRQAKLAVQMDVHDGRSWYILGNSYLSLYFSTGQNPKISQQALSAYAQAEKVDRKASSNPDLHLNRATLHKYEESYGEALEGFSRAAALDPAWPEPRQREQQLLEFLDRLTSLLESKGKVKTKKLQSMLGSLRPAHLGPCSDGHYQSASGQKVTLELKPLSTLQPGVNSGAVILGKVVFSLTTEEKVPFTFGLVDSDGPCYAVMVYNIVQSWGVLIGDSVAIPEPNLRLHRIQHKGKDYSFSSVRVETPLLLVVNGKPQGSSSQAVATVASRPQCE
UniProt O95857: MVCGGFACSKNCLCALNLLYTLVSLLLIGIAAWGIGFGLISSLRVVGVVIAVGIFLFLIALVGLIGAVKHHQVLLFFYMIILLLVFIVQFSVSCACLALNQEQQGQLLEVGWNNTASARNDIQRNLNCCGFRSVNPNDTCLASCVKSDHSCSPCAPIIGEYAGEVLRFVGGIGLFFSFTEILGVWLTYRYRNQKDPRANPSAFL
UniProt Q96RT7, whole entry, looked up: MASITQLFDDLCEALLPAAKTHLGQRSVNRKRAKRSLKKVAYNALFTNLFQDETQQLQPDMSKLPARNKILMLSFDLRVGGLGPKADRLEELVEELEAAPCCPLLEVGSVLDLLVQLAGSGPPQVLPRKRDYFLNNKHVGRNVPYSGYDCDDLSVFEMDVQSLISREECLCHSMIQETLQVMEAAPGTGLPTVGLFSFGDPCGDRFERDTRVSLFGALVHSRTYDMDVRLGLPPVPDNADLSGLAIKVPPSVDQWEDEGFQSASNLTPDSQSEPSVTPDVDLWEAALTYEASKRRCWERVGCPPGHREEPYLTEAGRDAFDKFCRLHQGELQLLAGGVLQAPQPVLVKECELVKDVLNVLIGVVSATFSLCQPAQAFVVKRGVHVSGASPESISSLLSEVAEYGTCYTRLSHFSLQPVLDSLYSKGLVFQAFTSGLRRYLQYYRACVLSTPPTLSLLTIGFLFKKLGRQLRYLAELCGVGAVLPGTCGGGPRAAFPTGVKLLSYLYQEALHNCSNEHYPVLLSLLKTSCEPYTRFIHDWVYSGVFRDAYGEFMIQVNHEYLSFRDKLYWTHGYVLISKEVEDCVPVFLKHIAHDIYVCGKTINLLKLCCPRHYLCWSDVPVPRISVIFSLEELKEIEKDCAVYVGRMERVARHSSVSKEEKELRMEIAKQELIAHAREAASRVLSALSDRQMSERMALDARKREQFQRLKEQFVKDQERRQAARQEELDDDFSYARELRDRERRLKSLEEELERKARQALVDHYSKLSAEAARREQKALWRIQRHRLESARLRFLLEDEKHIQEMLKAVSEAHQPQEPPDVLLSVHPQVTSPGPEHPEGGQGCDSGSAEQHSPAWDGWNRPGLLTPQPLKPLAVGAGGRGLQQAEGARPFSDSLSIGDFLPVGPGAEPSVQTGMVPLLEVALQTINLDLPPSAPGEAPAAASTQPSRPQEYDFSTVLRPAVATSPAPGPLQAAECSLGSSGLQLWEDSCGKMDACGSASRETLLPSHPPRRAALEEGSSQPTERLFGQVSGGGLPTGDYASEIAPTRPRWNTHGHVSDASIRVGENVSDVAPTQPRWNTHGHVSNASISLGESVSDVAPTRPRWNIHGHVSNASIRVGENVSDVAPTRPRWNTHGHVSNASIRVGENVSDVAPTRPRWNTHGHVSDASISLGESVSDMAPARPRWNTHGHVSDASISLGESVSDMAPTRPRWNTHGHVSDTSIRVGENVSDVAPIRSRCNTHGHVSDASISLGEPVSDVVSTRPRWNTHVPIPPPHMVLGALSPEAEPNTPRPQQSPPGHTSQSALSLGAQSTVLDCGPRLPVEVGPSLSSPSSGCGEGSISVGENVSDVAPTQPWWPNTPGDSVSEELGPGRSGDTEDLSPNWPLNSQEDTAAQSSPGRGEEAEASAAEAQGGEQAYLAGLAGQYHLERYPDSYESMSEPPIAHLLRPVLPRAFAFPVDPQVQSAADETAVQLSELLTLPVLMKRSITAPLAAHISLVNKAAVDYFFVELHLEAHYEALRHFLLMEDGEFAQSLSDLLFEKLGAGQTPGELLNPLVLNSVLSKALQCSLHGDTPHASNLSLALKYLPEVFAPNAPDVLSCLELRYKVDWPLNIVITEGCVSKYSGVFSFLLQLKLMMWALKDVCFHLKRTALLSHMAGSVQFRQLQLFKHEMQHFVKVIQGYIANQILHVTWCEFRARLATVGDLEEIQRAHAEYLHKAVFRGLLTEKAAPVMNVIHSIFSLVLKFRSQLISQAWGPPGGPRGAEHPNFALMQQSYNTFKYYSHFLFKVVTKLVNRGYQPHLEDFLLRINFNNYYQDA
UniProt Q5VYS8: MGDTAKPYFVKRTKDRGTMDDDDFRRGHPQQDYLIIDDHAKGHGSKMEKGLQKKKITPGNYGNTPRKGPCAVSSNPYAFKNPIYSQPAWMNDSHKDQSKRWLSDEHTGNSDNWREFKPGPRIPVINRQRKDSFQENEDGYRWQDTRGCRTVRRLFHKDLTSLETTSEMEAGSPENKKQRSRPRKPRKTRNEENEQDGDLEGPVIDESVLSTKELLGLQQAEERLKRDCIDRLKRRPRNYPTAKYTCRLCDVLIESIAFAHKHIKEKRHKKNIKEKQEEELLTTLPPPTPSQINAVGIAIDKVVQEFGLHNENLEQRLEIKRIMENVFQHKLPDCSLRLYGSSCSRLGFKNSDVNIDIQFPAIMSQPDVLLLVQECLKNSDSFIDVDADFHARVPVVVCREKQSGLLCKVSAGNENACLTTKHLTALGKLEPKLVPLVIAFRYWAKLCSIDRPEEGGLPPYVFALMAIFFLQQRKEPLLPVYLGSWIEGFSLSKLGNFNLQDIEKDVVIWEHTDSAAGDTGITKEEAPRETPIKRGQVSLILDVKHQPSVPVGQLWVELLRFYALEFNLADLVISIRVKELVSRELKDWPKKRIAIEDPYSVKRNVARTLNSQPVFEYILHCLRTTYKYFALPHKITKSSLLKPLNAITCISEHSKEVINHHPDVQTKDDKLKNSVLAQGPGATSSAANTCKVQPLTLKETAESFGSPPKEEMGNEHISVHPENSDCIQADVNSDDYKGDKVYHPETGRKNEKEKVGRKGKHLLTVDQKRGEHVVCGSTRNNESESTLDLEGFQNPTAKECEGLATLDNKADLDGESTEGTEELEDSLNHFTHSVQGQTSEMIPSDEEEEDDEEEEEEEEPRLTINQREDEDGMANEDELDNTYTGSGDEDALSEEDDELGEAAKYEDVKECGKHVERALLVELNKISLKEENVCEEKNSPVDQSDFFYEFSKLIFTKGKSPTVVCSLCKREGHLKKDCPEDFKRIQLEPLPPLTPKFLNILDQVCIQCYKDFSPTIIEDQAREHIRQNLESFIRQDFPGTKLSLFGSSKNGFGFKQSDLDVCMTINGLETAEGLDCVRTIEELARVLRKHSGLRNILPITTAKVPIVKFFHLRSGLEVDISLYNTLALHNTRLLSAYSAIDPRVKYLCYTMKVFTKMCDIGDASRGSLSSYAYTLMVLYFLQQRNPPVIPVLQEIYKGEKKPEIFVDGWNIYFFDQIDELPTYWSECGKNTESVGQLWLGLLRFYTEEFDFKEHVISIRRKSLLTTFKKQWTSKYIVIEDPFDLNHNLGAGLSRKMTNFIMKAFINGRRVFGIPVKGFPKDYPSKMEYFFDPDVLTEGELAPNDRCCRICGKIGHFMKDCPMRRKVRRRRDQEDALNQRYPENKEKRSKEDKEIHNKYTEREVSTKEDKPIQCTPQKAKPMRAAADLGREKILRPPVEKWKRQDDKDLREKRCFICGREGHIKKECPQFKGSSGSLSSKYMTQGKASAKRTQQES
UniProt Q9UJT1: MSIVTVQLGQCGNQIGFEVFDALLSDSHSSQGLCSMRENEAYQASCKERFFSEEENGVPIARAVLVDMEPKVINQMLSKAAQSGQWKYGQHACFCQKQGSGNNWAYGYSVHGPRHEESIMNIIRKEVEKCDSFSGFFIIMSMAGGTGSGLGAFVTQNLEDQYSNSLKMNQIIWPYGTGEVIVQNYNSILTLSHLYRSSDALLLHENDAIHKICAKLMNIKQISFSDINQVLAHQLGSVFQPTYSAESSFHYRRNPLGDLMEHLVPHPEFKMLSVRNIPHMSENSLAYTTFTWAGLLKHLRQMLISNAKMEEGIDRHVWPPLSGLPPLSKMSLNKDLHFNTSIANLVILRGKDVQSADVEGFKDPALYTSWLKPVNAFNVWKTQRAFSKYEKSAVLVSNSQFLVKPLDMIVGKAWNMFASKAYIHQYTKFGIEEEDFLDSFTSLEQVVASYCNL
UniProt Q6PGP7, whole entry, looked up: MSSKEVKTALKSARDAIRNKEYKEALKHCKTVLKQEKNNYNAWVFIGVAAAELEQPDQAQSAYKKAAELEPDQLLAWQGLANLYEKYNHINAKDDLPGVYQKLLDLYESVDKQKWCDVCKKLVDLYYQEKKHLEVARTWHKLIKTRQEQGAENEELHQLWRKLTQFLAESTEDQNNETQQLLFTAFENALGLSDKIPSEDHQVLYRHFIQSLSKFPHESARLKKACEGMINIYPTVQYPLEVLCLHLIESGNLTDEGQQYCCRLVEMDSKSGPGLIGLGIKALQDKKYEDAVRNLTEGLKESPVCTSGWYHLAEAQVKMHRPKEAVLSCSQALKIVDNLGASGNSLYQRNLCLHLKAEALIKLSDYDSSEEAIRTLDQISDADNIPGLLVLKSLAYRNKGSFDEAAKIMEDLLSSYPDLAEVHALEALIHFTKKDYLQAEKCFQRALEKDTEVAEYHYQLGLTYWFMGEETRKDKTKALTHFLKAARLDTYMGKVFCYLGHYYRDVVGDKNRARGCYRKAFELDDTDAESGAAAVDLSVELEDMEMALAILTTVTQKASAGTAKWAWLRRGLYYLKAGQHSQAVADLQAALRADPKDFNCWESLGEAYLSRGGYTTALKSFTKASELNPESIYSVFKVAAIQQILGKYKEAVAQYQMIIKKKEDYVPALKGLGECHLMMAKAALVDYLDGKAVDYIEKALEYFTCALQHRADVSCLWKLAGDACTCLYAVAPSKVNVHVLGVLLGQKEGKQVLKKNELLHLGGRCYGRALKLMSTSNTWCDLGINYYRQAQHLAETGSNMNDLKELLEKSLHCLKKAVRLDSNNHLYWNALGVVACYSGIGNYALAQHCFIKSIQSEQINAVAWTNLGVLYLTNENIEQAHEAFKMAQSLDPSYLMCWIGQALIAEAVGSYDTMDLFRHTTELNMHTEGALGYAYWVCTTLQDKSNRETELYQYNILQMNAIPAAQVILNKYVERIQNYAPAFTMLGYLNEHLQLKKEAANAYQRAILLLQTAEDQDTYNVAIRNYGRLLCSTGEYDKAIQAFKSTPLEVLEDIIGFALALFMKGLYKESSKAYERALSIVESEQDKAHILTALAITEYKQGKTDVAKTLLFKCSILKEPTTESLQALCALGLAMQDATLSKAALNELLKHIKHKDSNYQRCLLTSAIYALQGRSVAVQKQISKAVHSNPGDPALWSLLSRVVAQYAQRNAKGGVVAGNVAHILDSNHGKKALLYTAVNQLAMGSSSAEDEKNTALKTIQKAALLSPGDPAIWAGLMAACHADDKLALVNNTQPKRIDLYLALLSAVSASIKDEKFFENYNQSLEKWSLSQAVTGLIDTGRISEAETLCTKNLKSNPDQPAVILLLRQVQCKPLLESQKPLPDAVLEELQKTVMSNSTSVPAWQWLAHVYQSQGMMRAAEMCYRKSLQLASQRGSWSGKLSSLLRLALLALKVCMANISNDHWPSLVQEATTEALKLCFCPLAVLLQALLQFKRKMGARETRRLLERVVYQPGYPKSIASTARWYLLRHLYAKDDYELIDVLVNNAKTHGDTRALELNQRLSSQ

Tests used:
Assay in all cases: log2 fold change, soluble protein after heating vs DMSO (PISA); higher = thermal stabilisation; K562 cells, 10 uM, 30 min; active = over 0.2 and 3.5 SD of the protein, either way, in both replicates (recomputed)
[1] = compound: C/C(=N\NC(=O)C1=CC(=CC=C1)S(=O)(=O)N2CCOCC2)/C3=C(C=CC(=C3)Cl)O
Method in brief: (§1)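 Thermal stability values are relative to control samples and come from duplicates. They are expressed as log2 fold changes. For measurement, K562 cells (2×10^6 cells/mL) received 10 μM compound for 30 min, and aliquots were heated for 3 min over 48°C-58°C, pooled, and extracted at 4°C in PBS with 0.5% NP-40. Soluble protein, the supernatant after 21,000xg for 90 min, was quantified by TMTpro 16plex LC-MS/MS with equalised channel sums.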

[2] = compound: C1=CC2=C(C=CC(=C2)/C=C\3/C(=O)NC(=NCC4=CC=CS4)S3)N=C1
Method in brief: as §1

[3] = compound: C1=CC2=NC=CN=C2C=C1/C=C/3\C(=O)NC(=O)S3
Method in brief: as §1

[4] = compound: C1=CC=C(C=C1)C2=NC(=C(N2)C3=CC=NC=C3)C4=CC(=C(C=C4)Cl)O
Method in brief: as §1

[5] = compound: C1=CC=C2C(=C1)C3=NNC4=CC=CC(=C43)C2=O
Method in brief: as §1

ibrutinib = compound: C=CC(=O)N1CCC[C@@H](n2nc(-c3ccc(Oc4ccccc4)cc3)c3c(N)ncnc32)C1 [ibrutinib]
Method in brief: as §1

[6] = compound: CC(=O)c1cnc2ccc(-c3cc(Cl)c(O)c(Cl)c3)nc2c1N[C@H]1CC[C@H](CN(C)C)CC1
Method in brief: as §1

ralimetinib = compound: CC(C)(C)Cn1c(N)nc2ccc(-c3[nH]c(C(C)(C)C)nc3-c3ccc(F)cc3)nc21 [ralimetinib]
Method in brief: as §1

[7] = compound: CC(C)C[C@@H](C=O)NC(=O)[C@H](CC(C)C)NC(=O)[C@H](CC(C)C)NC(=O)OCc1ccccc1
Method in brief: as §1

[8] = compound: CC1=C(C(CC(=O)N1)C2=CC=C(C=C2)C(F)(F)F)C(=O)NC3=C(C=C4C(=C3)C=NN4)F
Method in brief: as §1

[9] = compound: C1=CC(=C(C=C1Cl)C2=NC3=NC=CN=C3C(=N2)NC4=CC=NC=C4)F
Method in brief: as §1

[10] = compound: CC(C)(O)CC(=O)NCCn1ccc2ncnc(Nc3ccc(Oc4cccc(C(F)(F)F)c4)c(Cl)c3)c21
Method in brief: as §1

erlotinib = compound: C#Cc1cccc(Nc2ncnc3cc(OCCOC)c(OCCOC)cc23)c1 [erlotinib]
Method in brief: as §1

[11] = compound: C1=CC(=CC=C1C2=NC3=C(N2)C=C(C=C3)C(=O)N)OC4=CC=C(C=C4)Cl
Method in brief: as §1

[12] = compound: CC(C)C1=C2N=C(C=C(N2N=C1)NCC3=CC=CC=C3)NCCCCCCN
Method in brief: as §1

[13] = compound: C1CCN(C1)C(=O)NC2=CC=CC(=C2)NC3=NC=C(C(=N3)NCCC4=CN=CN4)Br
Method in brief: as §1

[14] = compound: C1CN(CCC1(CC2=CC=C(C=C2)Cl)N)C3=NC=NC4=C3C=CN4
Method in brief: as §1

IRAK-1-4 Inhibitor I = compound: C1COCCN1CCN2C3=CC=CC=C3N=C2NC(=O)C4=CC(=CC=C4)[N+](=O)[O-] [IRAK-1-4 Inhibitor I]
Method in brief: as §1

pinometostat = compound: CC(C)N(C[C@H]1O[C@@H](n2cnc3c(N)ncnc32)[C@H](O)[C@@H]1O)[C@H]1C[C@@H](CCc2nc3cc(C(C)(C)C)ccc3[nH]2)C1 [pinometostat]
Method in brief: as §1

[15] = compound: CC1=C(C2=C(C=C1)C(=O)C3=CC=CC=C3N2CCCN)C
Method in brief: as §1

Measured: log2 fold change

TXNDC2 (UniProt Q86VQ3)
inactive: [1] -0.006 | [2] -0.079 | [3] 0.023 | [4] 0.061 | [5] -0.468 | ibrutinib -0.139 | [6] 0.124 | ralimetinib -0.139 | [7] -0.028 | [8] 0.164

TTK (UniProt P33981)
inactive: [9] -0.34 | [4] -0.171 | ralimetinib 0.192 | [10] -0.003 | [7] 0.244

TXNRD1 isoform 7 (UniProt Q16881)
inactive: erlotinib 0.107 | [9] 0.1 | [11] -0.193 | [3] 0.199 | ibrutinib -0.209 | [10] -0.069 | [12] -0.01

TTC12 isoform 2 (UniProt Q9H892)
inactive: erlotinib -0.282 | [9] -0.444 | [11] -0.049 | [3] -0.002 | [4] -0.259 | [13] 0.058 | [14] -0.036 | IRAK-1-4 Inhibitor I -0.188 | ibrutinib -0.099 | ralimetinib -0.224 | [10] 0.107 | [12] 0.061 | [7] 0.038 | pinometostat 0.347 | [8] 0.251 | [15] 0.181

TSPAN4 (UniProt O14817)
inactive: erlotinib -0.088 | [11] 0.059 | [3] -0.212 | [4] 0.004 | [13] -0.083 | [14] 0.14 | ibrutinib -0.154 | ralimetinib -0.055 | [12] 0.156 | [7] 0.06 | [15] 0.065

TSPYL4 (UniProt Q9UJ04)
inactive: IRAK-1-4 Inhibitor I -0.086 | pinometostat 0.061

TUBB8 (UniProt Q3ZCM7)
inactive: erlotinib -0.036 | [11] 0.16 | [4] -0.041 | IRAK-1-4 Inhibitor I 0.021 | ralimetinib 0.013 | [12] -0.002 | [7] 0.14 | pinometostat -0.016 | [8] -0.035

TTC26
inactive: [3] 0.001 | [4] -0.005 | [13] 0.09 | [14] -0.062 | ibrutinib 0.035 | ralimetinib 0.204 | [7] -0.211 | [15] 0.062

UBE2K (UniProt D6RDM7)
inactive: [9] -0.035 | [3] -0.225 | [4] -0.062 | [13] 0.189 | [14] -0.013 | IRAK-1-4 Inhibitor I -0.059 | ibrutinib -0.369 | ralimetinib 0.072 | [10] -0.04 | [7] 0.005 | pinometostat 0.131 | [8] 0.006 | [15] 0.125

UBE3B (UniProt Q7Z3V4)
inactive: [1] 0.018 | [9] 0.08 | [2] 0.121 | [3] 0.135 | [4] 0.064 | [5] -0.043 | [13] 0.395 | [14] 0.16 | IRAK-1-4 Inhibitor I -0.182 | ibrutinib -0.019 | [6] -0.068 | ralimetinib -0.296 | [10] -0.154 | [7] 0.001 | pinometostat 0.239 | [15] -0.188

TTC5 (UniProt Q8N0Z6)
inactive: [4] -0.05 | ralimetinib 0.098 | [7] 0.098

TYK2 (UniProt P29597)
inactive: [3] 0.107 | ibrutinib -0.21

TSKU (UniProt Q8WUA8)
inactive: erlotinib -0.092 | [11] 0.012 | [13] 0.014 | [14] -0.241 | [12] -0.084 | [15] -0.2

TSPAN13 (UniProt O95857)
inactive: erlotinib 0.017 | [9] -0.058 | [11] 0.061 | [3] 0.075 | [4] -0.02 | [13] 0.065 | [14] 0.143 | ibrutinib 0.175 | ralimetinib -0.149 | [10] 0.151 | [12] -0.198 | [7] 0.018 | [15] 0.065

TUBGCP6 (UniProt Q96RT7)
inactive: [1] -0.64 | [2] 0.057 | [5] 0.079 | IRAK-1-4 Inhibitor I 0.035 | [6] -0.032 | pinometostat -0.051

TUT7 (UniProt Q5VYS8)
inactive: [1] -0.021 | [9] -0.641 | [2] 0.145 | [5] 0.01 | [13] -0.001 | [14] -0.174 | IRAK-1-4 Inhibitor I 0.004 | [6] 0.019 | [10] 0 | pinometostat 0.217 | [8] 0.113 | [15] -0.395

TTC21B (UniProt Q7Z4L5)
inactive: [13] -0.016 | [14] 0.234 | [15] -0.103

TUBD1 (UniProt Q9UJT1)
inactive: [1] 0.057 | [2] 0.266 | [4] 0.104 | [5] -0.158 | IRAK-1-4 Inhibitor I -0.282 | [6] 0.178 | ralimetinib 0.297 | [7] 0.319 | pinometostat 0.204

TUBGCP5 (UniProt Q96RT8)
inactive: erlotinib 0.077 | [9] -0.004 | [11] 0.014 | [3] 0.04 | [13] -0.003 | [14] -0.04 | IRAK-1-4 Inhibitor I 0.064 | ibrutinib -0.09 | [10] 0.144 | [12] 0.293 | pinometostat 0.089 | [8] 0.076 | [15] -0.059

UBE2M (UniProt M0QX69)
inactive: IRAK-1-4 Inhibitor I -0.126 | pinometostat -0.014

TUBA4A (UniProt C9JJQ8)
inactive: [3] 0.004 | [13] 0.142 | [14] -0.036 | IRAK-1-4 Inhibitor I -0.203 | ibrutinib -0.076 | pinometostat -0.121 | [15] -0.042

UBE2L5, A0A1B0GUS4
inactive: erlotinib -0.122 | [11] -0.283 | [13] 0.515 | [14] 0.159 | [12] 0.074 | [15] -0.605

TUT1 (UniProt Q9H6E5)
inactive: [3] 0.062 | ibrutinib -0.041

UBAP2L (UniProt F8W726)
inactive: erlotinib 0.019 | [11] 0.004 | [3] -0.019 | [13] 0 | [14] 0.124 | ibrutinib 0.017 | [12] -0.002 | [15] 0.136

Five successive entries already listed, quoted:
TTK (UniProt P33981)
inactive: [9] -0.34 | [4] -0.171 | ralimetinib 0.192 | [10] -0.003 | [7] 0.244

TXNRD1 isoform 7 (UniProt Q16881)
inactive: erlotinib 0.107 | [9] 0.1 | [11] -0.193 | [3] 0.199 | ibrutinib -0.209 | [10] -0.069 | [12] -0.01

TTC12 isoform 2 (UniProt Q9H892)
inactive: erlotinib -0.282 | [9] -0.444 | [11] -0.049 | [3] -0.002 | [4] -0.259 | [13] 0.058 | [14] -0.036 | IRAK-1-4 Inhibitor I -0.188 | ibrutinib -0.099 | ralimetinib -0.224 | [10] 0.107 | [12] 0.061 | [7] 0.038 | pinometostat 0.347 | [8] 0.251 | [15] 0.181

TSPAN4 (UniProt O14817)
inactive: erlotinib -0.088 | [11] 0.059 | [3] -0.212 | [4] 0.004 | [13] -0.083 | [14] 0.14 | ibrutinib -0.154 | ralimetinib -0.055 | [12] 0.156 | [7] 0.06 | [15] 0.065

TSPYL4 (UniProt Q9UJ04)
inactive: IRAK-1-4 Inhibitor I -0.086 | pinometostat 0.061

Following part

TUBB8B (UniProt A6NNZ2)
inactive: erlotinib 0.062 | [9] 0.098 | [11] 0.141 | [3] 0.014 | [4] 0.028 | [13] -0.068 | [14] 0.059 | IRAK-1-4 Inhibitor I 0.033 | ibrutinib 0.007 | ralimetinib -0.027 | [10] -0.044 | [12] -0.099 | [7] -0.012 | pinometostat -0.05 | [8] 0.021 | [15] 0.087

TTC37 (UniProt Q6PGP7)
inactive: [1] -0.09 | [9] -0.567 | [2] 0.159 | [3] -0.094 | [4] -0.173 | [5] -0.117 | IRAK-1-4 Inhibitor I 0.257 | ibrutinib -0.067 | [6] 0.019 | ralimetinib -0.068 | [10] 0.227 | [7] -0.3 | pinometostat 0.22
